Values quoted from earlier work, collected in patent US20090181438A1, “OPTIMIZATION OF BIOFUEL PRODUCTION” (THE OHIO STATE UNIVERSITY RESEARCH FOUNDATION, priority 2007, published 2009).
Some entries share one result that the patent states for a list of compounds. Some compounds share one range, which may span the group rather than tell each member.

Conditions: logarithm of the octanol-water partition coefficient; cited from earlier work

Row | SMILES | log Po
1 | CCCCCCCCCCO [decanol] | 4-5
2 | CCCCCOCCCCC [dipentyl ether] | 4-5
